The list shows a part of the results. Residues, ends and D or L forms follow the SMILES beside them. *: point of attachment. Cbz = O=C(OCc1ccccc1)*
Key:
Assay in all cases: log2 fold change, soluble protein after heating vs DMSO (PISA); higher = thermal stabilisation; K562 cells, 10 uM, 30 min; active = over 0.2 and 3.5 SD of the protein, either way, in both replicates (recomputed)
erlotinib = compound: C#Cc1cccc(Nc2ncnc3cc(OCCOC)c(OCCOC)cc23)c1 [erlotinib]
Procedure, shortened: (§1)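 Aliquots of K562 cells (2×10^6 cells/mL) treated with 10 μM compound for 30 min were heated for 3 min over 48°C-58°C. After pooling and extraction in PBS with 0.5% NP-40 at 4°C, soluble protein from a 21,000xg, 90 min spin was quantified by TMTpro 16plex LC-MS/MS with channel sums equalised. Thermal stability is expressed against control samples, from duplicates, as a log2 fold change.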

The chains behind the UniProt entries cited, without tags or fusion partners. Where a name states a change or a piece, a line headed by the entry shows the natural chain unless it says otherwise.
UniProt Q9C073: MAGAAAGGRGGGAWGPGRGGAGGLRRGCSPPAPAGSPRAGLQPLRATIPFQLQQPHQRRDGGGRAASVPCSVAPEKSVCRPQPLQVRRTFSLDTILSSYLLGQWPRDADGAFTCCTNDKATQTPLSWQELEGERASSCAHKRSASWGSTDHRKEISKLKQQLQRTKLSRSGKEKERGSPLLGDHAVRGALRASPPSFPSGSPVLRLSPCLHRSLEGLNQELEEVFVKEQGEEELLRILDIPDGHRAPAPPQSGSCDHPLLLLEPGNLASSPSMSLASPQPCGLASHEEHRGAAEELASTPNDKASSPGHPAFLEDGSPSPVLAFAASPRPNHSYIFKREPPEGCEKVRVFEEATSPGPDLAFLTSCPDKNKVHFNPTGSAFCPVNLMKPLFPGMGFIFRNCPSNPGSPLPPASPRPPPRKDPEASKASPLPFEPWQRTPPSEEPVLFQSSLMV
UniProt Q96DF8: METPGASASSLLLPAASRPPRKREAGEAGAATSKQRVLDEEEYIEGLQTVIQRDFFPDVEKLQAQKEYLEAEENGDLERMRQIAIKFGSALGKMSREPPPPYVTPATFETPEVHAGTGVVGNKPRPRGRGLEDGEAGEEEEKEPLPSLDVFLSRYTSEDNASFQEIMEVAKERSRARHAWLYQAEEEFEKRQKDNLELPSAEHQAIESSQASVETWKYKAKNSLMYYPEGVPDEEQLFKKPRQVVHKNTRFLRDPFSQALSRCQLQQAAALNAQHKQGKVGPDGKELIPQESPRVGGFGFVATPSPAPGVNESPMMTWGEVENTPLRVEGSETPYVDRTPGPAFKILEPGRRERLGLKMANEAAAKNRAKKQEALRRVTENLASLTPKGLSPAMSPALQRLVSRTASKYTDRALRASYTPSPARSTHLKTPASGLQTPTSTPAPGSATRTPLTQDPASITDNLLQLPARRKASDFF
UniProt O75477: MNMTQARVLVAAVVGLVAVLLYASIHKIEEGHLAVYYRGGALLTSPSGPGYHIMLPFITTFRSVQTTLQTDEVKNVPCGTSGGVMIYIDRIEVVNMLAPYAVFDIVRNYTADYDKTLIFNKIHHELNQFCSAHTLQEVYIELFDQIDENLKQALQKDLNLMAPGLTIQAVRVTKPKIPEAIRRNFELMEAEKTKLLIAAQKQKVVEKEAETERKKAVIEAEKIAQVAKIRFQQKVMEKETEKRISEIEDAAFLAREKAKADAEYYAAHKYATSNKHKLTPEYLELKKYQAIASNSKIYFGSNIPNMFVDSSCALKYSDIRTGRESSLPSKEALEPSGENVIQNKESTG
UniProt P12259: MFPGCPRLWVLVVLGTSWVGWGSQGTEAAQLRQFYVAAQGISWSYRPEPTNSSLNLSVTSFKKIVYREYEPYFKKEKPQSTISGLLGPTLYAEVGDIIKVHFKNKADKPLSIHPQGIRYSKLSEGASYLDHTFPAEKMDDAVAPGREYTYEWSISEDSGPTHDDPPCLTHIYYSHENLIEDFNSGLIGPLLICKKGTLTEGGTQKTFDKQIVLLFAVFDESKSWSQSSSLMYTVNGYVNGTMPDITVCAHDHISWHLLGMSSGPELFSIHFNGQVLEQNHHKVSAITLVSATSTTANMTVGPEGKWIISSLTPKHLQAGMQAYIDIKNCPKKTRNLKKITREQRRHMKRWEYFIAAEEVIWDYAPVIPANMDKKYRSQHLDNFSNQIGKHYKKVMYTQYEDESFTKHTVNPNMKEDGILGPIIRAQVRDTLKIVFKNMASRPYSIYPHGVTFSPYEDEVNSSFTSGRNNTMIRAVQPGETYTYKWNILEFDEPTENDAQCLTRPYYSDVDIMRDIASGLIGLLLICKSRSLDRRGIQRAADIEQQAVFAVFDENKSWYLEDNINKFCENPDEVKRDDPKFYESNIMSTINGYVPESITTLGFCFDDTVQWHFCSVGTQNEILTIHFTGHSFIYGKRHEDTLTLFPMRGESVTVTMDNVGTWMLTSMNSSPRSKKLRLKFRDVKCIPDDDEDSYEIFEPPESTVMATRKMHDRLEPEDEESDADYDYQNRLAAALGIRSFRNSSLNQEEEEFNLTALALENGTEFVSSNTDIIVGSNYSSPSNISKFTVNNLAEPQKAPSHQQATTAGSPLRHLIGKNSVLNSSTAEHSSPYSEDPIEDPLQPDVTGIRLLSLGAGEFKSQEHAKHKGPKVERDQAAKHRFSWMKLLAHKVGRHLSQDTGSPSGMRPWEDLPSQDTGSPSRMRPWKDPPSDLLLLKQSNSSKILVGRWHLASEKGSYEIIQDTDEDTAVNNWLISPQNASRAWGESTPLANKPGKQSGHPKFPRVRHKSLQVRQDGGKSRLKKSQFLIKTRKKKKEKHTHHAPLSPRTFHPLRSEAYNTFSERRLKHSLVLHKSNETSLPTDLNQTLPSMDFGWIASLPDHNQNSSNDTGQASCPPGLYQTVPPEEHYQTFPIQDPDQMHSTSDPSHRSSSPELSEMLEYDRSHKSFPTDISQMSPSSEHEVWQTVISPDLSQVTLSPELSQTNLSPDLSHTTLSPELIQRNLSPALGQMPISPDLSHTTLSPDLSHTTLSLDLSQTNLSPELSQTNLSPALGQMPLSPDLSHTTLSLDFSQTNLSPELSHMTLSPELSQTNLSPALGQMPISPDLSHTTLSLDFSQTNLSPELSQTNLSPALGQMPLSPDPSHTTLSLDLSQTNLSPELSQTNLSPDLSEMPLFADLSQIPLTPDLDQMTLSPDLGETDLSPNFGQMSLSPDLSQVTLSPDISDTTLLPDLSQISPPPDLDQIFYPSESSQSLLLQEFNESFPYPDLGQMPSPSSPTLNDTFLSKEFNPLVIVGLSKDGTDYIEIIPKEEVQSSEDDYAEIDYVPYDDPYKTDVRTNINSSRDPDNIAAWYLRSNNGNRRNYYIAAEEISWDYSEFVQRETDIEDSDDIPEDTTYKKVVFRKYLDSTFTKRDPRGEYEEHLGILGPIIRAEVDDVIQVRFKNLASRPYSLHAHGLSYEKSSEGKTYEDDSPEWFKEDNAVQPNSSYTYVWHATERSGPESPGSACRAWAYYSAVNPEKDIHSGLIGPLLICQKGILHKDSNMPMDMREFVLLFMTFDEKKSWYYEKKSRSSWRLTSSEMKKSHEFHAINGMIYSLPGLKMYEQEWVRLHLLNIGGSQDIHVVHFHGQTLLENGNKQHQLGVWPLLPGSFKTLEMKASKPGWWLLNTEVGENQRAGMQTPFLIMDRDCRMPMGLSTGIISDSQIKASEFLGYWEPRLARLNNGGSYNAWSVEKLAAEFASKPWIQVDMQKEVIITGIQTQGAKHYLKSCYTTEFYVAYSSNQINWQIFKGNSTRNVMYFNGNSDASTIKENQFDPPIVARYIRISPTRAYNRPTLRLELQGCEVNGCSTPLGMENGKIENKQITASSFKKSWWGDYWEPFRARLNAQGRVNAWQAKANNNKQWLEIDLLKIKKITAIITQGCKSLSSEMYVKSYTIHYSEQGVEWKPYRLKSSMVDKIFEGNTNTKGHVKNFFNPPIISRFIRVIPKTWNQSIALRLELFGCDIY
UniProt Q9BSJ8: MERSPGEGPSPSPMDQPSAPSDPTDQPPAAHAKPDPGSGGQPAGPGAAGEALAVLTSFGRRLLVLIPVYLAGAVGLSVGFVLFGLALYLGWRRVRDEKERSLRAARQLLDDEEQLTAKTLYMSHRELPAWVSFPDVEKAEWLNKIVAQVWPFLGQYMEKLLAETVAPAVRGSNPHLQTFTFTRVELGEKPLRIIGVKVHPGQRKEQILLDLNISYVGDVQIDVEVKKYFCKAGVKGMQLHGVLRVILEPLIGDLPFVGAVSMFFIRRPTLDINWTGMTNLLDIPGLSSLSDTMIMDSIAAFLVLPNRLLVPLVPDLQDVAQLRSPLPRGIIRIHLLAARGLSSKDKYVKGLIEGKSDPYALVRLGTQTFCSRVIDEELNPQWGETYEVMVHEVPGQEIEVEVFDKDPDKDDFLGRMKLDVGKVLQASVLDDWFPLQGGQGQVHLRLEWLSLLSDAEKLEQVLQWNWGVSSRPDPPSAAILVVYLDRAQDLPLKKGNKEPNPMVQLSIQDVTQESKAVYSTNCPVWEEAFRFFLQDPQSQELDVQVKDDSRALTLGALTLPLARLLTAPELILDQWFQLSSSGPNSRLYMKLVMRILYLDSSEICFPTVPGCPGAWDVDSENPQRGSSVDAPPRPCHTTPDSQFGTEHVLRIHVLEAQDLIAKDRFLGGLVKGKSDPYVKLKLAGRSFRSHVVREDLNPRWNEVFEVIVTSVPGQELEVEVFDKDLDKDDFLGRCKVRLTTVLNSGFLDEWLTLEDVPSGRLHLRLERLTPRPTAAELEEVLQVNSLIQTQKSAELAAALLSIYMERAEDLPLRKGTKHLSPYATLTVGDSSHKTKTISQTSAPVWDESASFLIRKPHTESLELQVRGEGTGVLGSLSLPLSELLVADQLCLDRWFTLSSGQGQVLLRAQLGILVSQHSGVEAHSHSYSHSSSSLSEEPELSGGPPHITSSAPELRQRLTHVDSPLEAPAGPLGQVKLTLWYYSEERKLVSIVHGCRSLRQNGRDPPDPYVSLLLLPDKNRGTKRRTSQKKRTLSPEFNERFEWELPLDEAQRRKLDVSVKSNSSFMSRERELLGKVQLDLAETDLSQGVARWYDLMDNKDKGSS
UniProt Q9NRY5: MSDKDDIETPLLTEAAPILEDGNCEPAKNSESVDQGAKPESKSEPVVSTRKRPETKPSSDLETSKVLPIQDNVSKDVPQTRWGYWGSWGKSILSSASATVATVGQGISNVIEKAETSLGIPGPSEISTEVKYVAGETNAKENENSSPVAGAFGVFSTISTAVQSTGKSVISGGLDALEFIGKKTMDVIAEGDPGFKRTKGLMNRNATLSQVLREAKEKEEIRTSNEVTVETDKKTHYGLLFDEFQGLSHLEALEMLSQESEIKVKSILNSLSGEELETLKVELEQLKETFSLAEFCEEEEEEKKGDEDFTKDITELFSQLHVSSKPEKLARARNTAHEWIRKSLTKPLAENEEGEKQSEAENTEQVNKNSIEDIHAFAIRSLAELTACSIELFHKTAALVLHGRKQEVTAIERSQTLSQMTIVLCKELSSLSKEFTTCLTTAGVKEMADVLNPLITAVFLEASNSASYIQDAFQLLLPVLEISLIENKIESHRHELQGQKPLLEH
UniProt O94905: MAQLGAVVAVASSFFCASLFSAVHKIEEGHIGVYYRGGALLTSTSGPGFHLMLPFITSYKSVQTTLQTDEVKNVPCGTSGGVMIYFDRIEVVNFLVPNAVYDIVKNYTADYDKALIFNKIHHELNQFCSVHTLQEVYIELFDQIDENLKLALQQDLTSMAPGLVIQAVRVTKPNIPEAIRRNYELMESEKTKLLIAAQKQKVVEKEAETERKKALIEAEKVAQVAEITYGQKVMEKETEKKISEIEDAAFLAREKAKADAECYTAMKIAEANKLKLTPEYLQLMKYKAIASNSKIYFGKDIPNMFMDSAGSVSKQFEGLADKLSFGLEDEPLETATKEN
UniProt Q0VG06: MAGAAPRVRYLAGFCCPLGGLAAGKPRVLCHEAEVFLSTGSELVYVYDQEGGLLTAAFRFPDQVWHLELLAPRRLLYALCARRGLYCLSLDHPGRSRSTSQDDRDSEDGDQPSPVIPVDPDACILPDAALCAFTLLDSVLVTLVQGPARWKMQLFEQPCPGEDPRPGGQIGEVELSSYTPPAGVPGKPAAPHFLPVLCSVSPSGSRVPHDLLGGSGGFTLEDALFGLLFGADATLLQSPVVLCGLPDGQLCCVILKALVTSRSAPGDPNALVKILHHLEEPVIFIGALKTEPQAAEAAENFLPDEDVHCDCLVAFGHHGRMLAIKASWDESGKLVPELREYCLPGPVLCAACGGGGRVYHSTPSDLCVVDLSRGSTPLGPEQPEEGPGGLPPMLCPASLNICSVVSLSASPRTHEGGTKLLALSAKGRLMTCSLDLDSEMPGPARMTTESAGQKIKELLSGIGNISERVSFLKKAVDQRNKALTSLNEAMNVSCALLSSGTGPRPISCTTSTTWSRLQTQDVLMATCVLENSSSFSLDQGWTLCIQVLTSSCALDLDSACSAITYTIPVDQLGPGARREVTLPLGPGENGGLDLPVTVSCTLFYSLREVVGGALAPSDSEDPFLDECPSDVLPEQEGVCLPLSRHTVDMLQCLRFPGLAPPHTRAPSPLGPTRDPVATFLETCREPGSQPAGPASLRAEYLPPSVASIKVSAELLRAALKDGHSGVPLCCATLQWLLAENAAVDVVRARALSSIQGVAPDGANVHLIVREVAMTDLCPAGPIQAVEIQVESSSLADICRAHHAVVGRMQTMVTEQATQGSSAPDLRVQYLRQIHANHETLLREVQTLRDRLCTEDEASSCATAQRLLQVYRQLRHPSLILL
UniProt Q8N128: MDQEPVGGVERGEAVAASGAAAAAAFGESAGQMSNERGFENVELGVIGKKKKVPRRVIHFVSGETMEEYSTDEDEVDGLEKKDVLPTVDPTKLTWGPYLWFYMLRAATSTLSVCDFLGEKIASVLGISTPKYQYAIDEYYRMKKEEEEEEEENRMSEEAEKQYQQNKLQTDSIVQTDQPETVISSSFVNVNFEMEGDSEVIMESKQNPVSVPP

[1] = compound: C/C(=N\NC(=O)C1=CC(=CC=C1)S(=O)(=O)N2CCOCC2)/C3=C(C=CC(=C3)Cl)O
Procedure, shortened: as §1

[2] = compound: C1=CC(=C(C=C1Cl)C2=NC3=NC=CN=C3C(=N2)NC4=CC=NC=C4)F
Procedure, shortened: as §1

[3] = compound: C1=CC(=CC=C1C2=NC3=C(N2)C=C(C=C3)C(=O)N)OC4=CC=C(C=C4)Cl
Procedure, shortened: as §1

[4] = compound: C1=CC2=C(C=CC(=C2)/C=C\3/C(=O)NC(=NCC4=CC=CS4)S3)N=C1
Procedure, shortened: as §1

[5] = compound: C1=CC2=NC=CN=C2C=C1/C=C/3\C(=O)NC(=O)S3
Procedure, shortened: as §1

[6] = compound: C1=CC=C(C=C1)C2=NC(=C(N2)C3=CC=NC=C3)C4=CC(=C(C=C4)Cl)O
Procedure, shortened: as §1

[7] = compound: C1=CC=C2C(=C1)C3=NNC4=CC=CC(=C43)C2=O
Procedure, shortened: as §1

[8] = compound: C1CCN(C1)C(=O)NC2=CC=CC(=C2)NC3=NC=C(C(=N3)NCCC4=CN=CN4)Br
Procedure, shortened: as §1

[9] = compound: C1CN(CCC1(CC2=CC=C(C=C2)Cl)N)C3=NC=NC4=C3C=CN4
Procedure, shortened: as §1

IRAK-1-4 Inhibitor I = compound: C1COCCN1CCN2C3=CC=CC=C3N=C2NC(=O)C4=CC(=CC=C4)[N+](=O)[O-] [IRAK-1-4 Inhibitor I]
Procedure, shortened: as §1

ibrutinib = compound: C=CC(=O)N1CCC[C@@H](n2nc(-c3ccc(Oc4ccccc4)cc3)c3c(N)ncnc32)C1 [ibrutinib]
Procedure, shortened: as §1

[10] = compound: CC(=O)c1cnc2ccc(-c3cc(Cl)c(O)c(Cl)c3)nc2c1N[C@H]1CC[C@H](CN(C)C)CC1
Procedure, shortened: as §1

ralimetinib = compound: CC(C)(C)Cn1c(N)nc2ccc(-c3[nH]c(C(C)(C)C)nc3-c3ccc(F)cc3)nc21 [ralimetinib]
Procedure, shortened: as §1

[11] = compound: CC(C)(O)CC(=O)NCCn1ccc2ncnc(Nc3ccc(Oc4cccc(C(F)(F)F)c4)c(Cl)c3)c21
Procedure, shortened: as §1

[12] = compound: CC(C)C1=C2N=C(C=C(N2N=C1)NCC3=CC=CC=C3)NCCCCCCN
Procedure, shortened: as §1

[13] = compound: CC(C)C[C@@H](C=O)NC(=O)[C@H](CC(C)C)NC(=O)[C@H](CC(C)C)NC(=O)OCc1ccccc1
Procedure, shortened: as §1

pinometostat = compound: CC(C)N(C[C@H]1O[C@@H](n2cnc3c(N)ncnc32)[C@H](O)[C@@H]1O)[C@H]1C[C@@H](CCc2nc3cc(C(C)(C)C)ccc3[nH]2)C1 [pinometostat]
Procedure, shortened: as §1

[14] = compound: CC1=C(C(CC(=O)N1)C2=CC=C(C=C2)C(F)(F)F)C(=O)NC3=C(C=C4C(=C3)C=NN4)F
Procedure, shortened: as §1

[15] = compound: CC1=C(C2=C(C=C1)C(=O)C3=CC=CC=C3N2CCCN)C
Procedure, shortened: as §1

Row | Target | log2 fold change (erlotinib) | log2 fold change [1] | log2 fold change [2] | log2 fold change [3] | log2 fold change [4] | log2 fold change [5] | log2 fold change [6] | log2 fold change [7] | log2 fold change [8] | log2 fold change [9] | log2 fold change (IRAK-1-4 Inhibitor I) | log2 fold change (ibrutinib) | log2 fold change [10] | log2 fold change (ralimetinib) | log2 fold change [11] | log2 fold change [12] | log2 fold change [13] | log2 fold change (pinometostat) | log2 fold change [14] | log2 fold change [15]
1 | ERLEC1 (UniProt Q96DZ1) | inactive: 0.023 | inactive: 0.037 | inactive: 0.03 | inactive: 0.017 | inactive: 0.065 | inactive: 0.026 | inactive: -0.031 | inactive: -0.033 | inactive: -0.007 | inactive: -0.02 | inactive: 0.006 | inactive: 0.022 | inactive: -0.02 | inactive: 0.016 | inactive: -0.006 | inactive: -0.032 | inactive: -0.013 | inactive: 0.03 | inactive: 0.013 | inactive: 0.022
2 | FAM117A (UniProt Q9C073) | inactive: 0.127 | inactive: 0.054 | inactive: -0.056 | inactive: 0.053 | active: -0.279 | inactive: -0.101 | inactive: -0.041 | inactive: -0.129 | inactive: -0.143 | inactive: -0.121 | inactive: -0.004 | inactive: 0.001 | active: -0.833 | inactive: -0.125 | inactive: -0.068 | inactive: -0.102 | inactive: 0.126 | inactive: -0.003 | – | inactive: 0.011
3 | ESS2 (UniProt Q96DF8) | inactive: -0.057 | inactive: -0.05 | inactive: -0.013 | inactive: 0.046 | inactive: -0.083 | inactive: 0.04 | inactive: -0.055 | inactive: -0.071 | inactive: -0.008 | inactive: 0.096 | inactive: 0.032 | inactive: 0.025 | inactive: 0.031 | inactive: -0.009 | inactive: 0.013 | inactive: 0.002 | inactive: 0.136 | inactive: 0.056 | – | inactive: -0.021
4 | ERLIN1 (UniProt O75477) | inactive: -0.081 | inactive: 0.013 | inactive: -0.097 | inactive: -0.001 | inactive: -0.015 | inactive: -0.011 | inactive: -0.006 | inactive: -0.047 | inactive: 0.008 | inactive: -0.124 | inactive: -0.073 | inactive: -0.06 | inactive: 0.105 | inactive: 0.054 | inactive: -0.018 | active: -0.269 | inactive: -0.007 | inactive: 0.098 | – | inactive: 0.068
5 | F5 (UniProt P12259) | inactive: -0.122 | inactive: 0 | inactive: -0.002 | inactive: 0.061 | inactive: -0.096 | inactive: -0.054 | inactive: -0.018 | inactive: -0.064 | inactive: 0 | inactive: 0.052 | inactive: 0.006 | inactive: 0.064 | inactive: 0.003 | inactive: -0.042 | inactive: 0.168 | inactive: -0.088 | inactive: 0.001 | inactive: -0.016 | – | inactive: -0.129
6 | F2 (UniProt P00734) | inactive: 0.011 | inactive: -0.209 | inactive: -0.017 | inactive: -0.018 | inactive: 0.079 | inactive: -0.053 | inactive: -0.08 | inactive: -0.112 | inactive: 0.09 | inactive: 0.112 | inactive: 0.005 | inactive: 0.333 | inactive: 0.001 | inactive: -0.048 | inactive: -0.02 | inactive: 0.018 | inactive: -0.035 | inactive: -0.014 | inactive: 0.004 | inactive: -0.144
7 | FADS3 (UniProt Q9Y5Q0) | inactive: 0.03 | inactive: -0.005 | inactive: 0.104 | inactive: 0.017 | inactive: 0.064 | inactive: 0.058 | inactive: 0.04 | inactive: 0.001 | inactive: -0.055 | inactive: 0.05 | inactive: 0.029 | inactive: 0.018 | inactive: -0.031 | inactive: -0.064 | inactive: -0.121 | inactive: -0.011 | inactive: 0.102 | inactive: 0.038 | – | inactive: 0.054
8 | ESYT1 isoform 2 (UniProt Q9BSJ8) | inactive: 0.039 | inactive: 0.081 | inactive: -0.016 | inactive: -0.05 | inactive: 0.035 | inactive: -0.069 | inactive: -0.042 | inactive: 0.043 | inactive: -0.11 | inactive: -0.092 | inactive: -0.126 | inactive: -0.046 | inactive: -0.048 | inactive: 0 | inactive: -0.075 | active: -0.321 | inactive: 0.053 | inactive: 0.152 | – | inactive: 0.031
9 | FAM114A2 (UniProt Q9NRY5) | inactive: -0.001 | inactive: 0.051 | inactive: 0.055 | inactive: -0.002 | inactive: 0.008 | inactive: 0.067 | inactive: -0.018 | inactive: -0.04 | inactive: -0.002 | inactive: -0.021 | inactive: 0.038 | inactive: -0.03 | inactive: 0.013 | inactive: -0.017 | inactive: -0.135 | inactive: -0.201 | inactive: 0.004 | inactive: 0.005 | – | inactive: -0.059
10 | EXOC5 (UniProt O00471) | inactive: 0.054 | inactive: 0.092 | inactive: -0.002 | inactive: -0.044 | inactive: 0.01 | inactive: 0 | inactive: -0.006 | inactive: 0.015 | inactive: 0.004 | inactive: -0.015 | inactive: -0.062 | inactive: -0.002 | inactive: -0.01 | inactive: 0.015 | inactive: -0.03 | active: -0.344 | inactive: 0.014 | inactive: 0.078 | – | inactive: -0.061
11 | ERLIN2 (UniProt O94905) | inactive: -0.073 | inactive: -0.075 | inactive: -0.054 | inactive: -0.014 | inactive: -0.012 | inactive: 0.027 | inactive: 0.021 | inactive: -0.054 | inactive: -0.002 | inactive: -0.097 | inactive: -0.089 | inactive: 0.001 | inactive: 0.058 | inactive: 0.004 | inactive: 0 | active: -0.296 | inactive: 0.035 | inactive: 0.093 | – | inactive: 0.013
12 | FAM118B (UniProt Q9BPY3) | inactive: 0.164 | inactive: 0.098 | inactive: 0.195 | inactive: -0.084 | inactive: 0.123 | inactive: 0 | inactive: 0.044 | inactive: -0.021 | inactive: -0.045 | inactive: -0.023 | inactive: 0.039 | inactive: 0.073 | inactive: -0.118 | inactive: 0.051 | inactive: -0.199 | inactive: -0.145 | inactive: 0.065 | inactive: -0.024 | – | inactive: 0.042
13 | FAF2 (UniProt Q96CS3) | inactive: 0.009 | inactive: 0.078 | inactive: -0.003 | inactive: 0.02 | inactive: 0.049 | inactive: 0.03 | inactive: 0.15 | inactive: 0.009 | inactive: 0.035 | inactive: 0.004 | inactive: 0 | inactive: -0.026 | inactive: -0.034 | inactive: 0.103 | inactive: -0.029 | inactive: -0.044 | inactive: 0.03 | inactive: 0.053 | – | inactive: 0.044
14 | FAAP100 (UniProt Q0VG06) | inactive: 0.003 | inactive: 0.019 | inactive: 0.246 | inactive: 0.037 | inactive: 0.052 | inactive: 0.17 | inactive: -0.024 | inactive: 0.023 | inactive: -0.122 | inactive: 0.004 | inactive: 0.026 | inactive: -0.247 | inactive: -0.025 | inactive: -0.065 | inactive: -0.085 | inactive: -0.043 | inactive: -0.05 | inactive: 0.013 | – | inactive: 0.055
15 | FAM177A1 isoform 2 (UniProt Q8N128) | inactive: 0.048 | inactive: 0.042 | inactive: 0.038 | inactive: 0.023 | inactive: 0.036 | inactive: 0.02 | inactive: 0.024 | inactive: -0.037 | inactive: 0.109 | inactive: 0.044 | inactive: 0.042 | inactive: 0.038 | inactive: 0.033 | inactive: 0 | inactive: -0.242 | inactive: -0.245 | inactive: 0.029 | inactive: 0.081 | – | inactive: -0.019
16 | EPHX2 (UniProt P34913) | inactive: -0.01 | inactive: 0.213 | inactive: -0.008 | inactive: 0.2 | inactive: 0.09 | inactive: -0.004 | inactive: 0.038 | inactive: -0.032 | inactive: 0.123 | inactive: -0.001 | inactive: 0.044 | inactive: 0.096 | inactive: -0.024 | inactive: -0.026 | inactive: -0.018 | active: 0.285 | inactive: 0.012 | inactive: 0.144 | – | inactive: -0.006
17 | ERCC2 (UniProt P18074) | inactive: 0.04 | inactive: 0.049 | inactive: 0.2 | inactive: 0.033 | inactive: 0.041 | inactive: -0.051 | inactive: 0.014 | inactive: -0.054 | inactive: -0.005 | inactive: 0.036 | inactive: -0.01 | inactive: 0.003 | inactive: -0.165 | inactive: 0.014 | inactive: 0.016 | inactive: -0.068 | inactive: 0.03 | inactive: 0.078 | – | inactive: -0.016

From no. 1 as far as 2, as listed above:
Row | Target | log2 fold change (erlotinib) | log2 fold change [1] | log2 fold change [2] | log2 fold change [3] | log2 fold change [4] | log2 fold change [5] | log2 fold change [6] | log2 fold change [7] | log2 fold change [8] | log2 fold change [9] | log2 fold change (IRAK-1-4 Inhibitor I) | log2 fold change (ibrutinib) | log2 fold change [10] | log2 fold change (ralimetinib) | log2 fold change [11] | log2 fold change [12] | log2 fold change [13] | log2 fold change (pinometostat) | log2 fold change [14] | log2 fold change [15]
1 | ERLEC1 (UniProt Q96DZ1) | inactive: 0.023 | inactive: 0.037 | inactive: 0.03 | inactive: 0.017 | inactive: 0.065 | inactive: 0.026 | inactive: -0.031 | inactive: -0.033 | inactive: -0.007 | inactive: -0.02 | inactive: 0.006 | inactive: 0.022 | inactive: -0.02 | inactive: 0.016 | inactive: -0.006 | inactive: -0.032 | inactive: -0.013 | inactive: 0.03 | inactive: 0.013 | inactive: 0.022
2 | FAM117A (UniProt Q9C073) | inactive: 0.127 | inactive: 0.054 | inactive: -0.056 | inactive: 0.053 | active: -0.279 | inactive: -0.101 | inactive: -0.041 | inactive: -0.129 | inactive: -0.143 | inactive: -0.121 | inactive: -0.004 | inactive: 0.001 | active: -0.833 | inactive: -0.125 | inactive: -0.068 | inactive: -0.102 | inactive: 0.126 | inactive: -0.003 | – | inactive: 0.011

Source: the supplement of paper PMC10849652
